# Laboratory results as given in paper PMC6962096.
# The chains behind the UniProt entries cited, without tags or fusion partners.
# UniProt O00303: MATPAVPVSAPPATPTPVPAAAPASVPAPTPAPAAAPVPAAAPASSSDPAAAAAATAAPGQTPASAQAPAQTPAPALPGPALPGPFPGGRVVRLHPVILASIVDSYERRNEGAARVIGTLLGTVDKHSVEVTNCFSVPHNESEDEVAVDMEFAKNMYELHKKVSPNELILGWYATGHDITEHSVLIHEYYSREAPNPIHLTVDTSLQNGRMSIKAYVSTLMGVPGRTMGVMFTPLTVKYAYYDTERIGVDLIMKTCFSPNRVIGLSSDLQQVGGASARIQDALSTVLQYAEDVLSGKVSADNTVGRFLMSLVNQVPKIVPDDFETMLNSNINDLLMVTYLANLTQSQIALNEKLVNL
# UniProt Q9NYF8: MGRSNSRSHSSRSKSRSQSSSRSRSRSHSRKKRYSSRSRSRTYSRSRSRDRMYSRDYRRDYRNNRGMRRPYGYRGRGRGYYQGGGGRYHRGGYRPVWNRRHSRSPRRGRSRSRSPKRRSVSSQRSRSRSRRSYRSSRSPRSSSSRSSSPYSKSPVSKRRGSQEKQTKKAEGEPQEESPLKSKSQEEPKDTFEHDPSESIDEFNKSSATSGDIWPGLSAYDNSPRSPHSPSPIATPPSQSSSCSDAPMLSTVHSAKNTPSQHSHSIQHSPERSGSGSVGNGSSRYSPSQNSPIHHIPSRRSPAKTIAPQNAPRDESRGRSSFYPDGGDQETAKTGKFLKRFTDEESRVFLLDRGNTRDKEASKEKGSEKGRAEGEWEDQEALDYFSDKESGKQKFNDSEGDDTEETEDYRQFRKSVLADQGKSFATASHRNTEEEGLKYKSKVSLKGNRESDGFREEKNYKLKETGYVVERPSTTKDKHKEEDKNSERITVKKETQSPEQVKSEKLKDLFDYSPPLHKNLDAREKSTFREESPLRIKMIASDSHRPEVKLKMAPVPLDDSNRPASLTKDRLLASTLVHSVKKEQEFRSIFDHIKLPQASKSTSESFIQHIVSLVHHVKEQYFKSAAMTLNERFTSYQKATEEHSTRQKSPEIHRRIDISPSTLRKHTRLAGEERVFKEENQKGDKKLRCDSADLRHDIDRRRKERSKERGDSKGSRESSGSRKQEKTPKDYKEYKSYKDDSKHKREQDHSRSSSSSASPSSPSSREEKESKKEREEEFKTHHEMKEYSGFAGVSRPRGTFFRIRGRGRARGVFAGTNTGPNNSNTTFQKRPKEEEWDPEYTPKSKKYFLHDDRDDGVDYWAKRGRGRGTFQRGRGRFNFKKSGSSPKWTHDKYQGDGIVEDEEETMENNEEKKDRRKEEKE
# UniProt Q99613: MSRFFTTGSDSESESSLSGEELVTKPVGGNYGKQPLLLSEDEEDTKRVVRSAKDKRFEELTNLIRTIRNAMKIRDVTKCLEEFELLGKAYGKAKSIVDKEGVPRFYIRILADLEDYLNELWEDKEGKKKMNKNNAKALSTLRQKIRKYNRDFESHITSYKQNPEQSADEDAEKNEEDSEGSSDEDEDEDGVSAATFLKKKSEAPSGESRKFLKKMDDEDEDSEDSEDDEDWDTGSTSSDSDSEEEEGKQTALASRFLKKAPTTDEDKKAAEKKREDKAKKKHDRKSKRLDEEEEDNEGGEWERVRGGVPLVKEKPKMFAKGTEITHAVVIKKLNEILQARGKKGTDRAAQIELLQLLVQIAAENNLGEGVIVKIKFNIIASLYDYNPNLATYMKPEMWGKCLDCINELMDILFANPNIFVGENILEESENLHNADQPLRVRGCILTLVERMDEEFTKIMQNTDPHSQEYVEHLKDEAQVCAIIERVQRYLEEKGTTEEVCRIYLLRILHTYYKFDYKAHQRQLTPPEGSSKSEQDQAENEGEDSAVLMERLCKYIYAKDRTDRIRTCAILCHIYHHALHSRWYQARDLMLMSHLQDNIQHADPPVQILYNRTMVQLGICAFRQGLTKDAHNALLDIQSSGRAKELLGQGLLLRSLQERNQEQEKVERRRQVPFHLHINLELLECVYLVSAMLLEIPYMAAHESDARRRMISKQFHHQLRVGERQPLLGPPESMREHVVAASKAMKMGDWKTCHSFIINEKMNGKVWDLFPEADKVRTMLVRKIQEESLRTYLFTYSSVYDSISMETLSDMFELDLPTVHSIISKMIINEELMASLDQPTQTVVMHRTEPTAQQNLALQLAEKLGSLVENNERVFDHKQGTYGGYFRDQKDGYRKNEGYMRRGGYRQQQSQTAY
# UniProt Q13263: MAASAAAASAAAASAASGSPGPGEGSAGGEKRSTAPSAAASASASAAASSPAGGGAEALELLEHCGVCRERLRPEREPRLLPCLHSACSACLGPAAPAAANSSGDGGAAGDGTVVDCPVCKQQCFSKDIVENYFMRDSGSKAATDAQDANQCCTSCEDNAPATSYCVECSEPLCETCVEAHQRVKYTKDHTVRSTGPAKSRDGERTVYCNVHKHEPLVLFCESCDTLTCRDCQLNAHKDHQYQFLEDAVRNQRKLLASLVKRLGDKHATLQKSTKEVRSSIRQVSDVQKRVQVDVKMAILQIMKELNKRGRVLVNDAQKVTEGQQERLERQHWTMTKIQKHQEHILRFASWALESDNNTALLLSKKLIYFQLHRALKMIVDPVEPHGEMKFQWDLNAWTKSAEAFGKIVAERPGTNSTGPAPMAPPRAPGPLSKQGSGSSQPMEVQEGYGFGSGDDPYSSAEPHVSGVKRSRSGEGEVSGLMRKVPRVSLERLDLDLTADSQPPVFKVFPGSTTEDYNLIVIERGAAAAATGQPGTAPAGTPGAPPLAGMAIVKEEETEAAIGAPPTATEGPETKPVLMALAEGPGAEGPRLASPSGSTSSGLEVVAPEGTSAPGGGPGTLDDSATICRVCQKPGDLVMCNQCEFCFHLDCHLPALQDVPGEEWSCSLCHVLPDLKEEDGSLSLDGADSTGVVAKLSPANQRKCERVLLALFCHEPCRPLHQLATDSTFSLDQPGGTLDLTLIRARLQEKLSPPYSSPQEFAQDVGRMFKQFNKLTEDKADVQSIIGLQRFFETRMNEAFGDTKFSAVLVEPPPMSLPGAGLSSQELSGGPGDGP
# UniProt B5ME19: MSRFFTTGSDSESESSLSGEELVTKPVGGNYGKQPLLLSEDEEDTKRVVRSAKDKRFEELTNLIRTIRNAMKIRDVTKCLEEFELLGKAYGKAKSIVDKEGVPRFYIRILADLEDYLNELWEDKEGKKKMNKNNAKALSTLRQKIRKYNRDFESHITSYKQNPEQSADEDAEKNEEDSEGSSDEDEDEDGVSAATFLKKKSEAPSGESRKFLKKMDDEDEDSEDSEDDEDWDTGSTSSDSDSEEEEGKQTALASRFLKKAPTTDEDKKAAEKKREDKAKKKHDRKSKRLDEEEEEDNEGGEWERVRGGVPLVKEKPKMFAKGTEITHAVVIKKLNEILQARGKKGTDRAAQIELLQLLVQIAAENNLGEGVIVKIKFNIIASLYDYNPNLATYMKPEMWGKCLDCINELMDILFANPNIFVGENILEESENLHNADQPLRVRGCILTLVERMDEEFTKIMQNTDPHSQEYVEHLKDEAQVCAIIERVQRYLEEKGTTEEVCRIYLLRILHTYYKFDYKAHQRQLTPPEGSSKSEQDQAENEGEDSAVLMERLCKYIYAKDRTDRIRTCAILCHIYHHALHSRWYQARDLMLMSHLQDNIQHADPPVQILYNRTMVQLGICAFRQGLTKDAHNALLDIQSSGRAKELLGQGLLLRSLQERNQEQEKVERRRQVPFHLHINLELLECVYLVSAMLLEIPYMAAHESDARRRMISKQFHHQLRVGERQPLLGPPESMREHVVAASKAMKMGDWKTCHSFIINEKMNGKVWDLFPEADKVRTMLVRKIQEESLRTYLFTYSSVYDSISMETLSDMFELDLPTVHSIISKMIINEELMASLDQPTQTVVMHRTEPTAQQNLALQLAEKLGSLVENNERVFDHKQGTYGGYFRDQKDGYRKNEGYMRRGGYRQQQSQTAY
# UniProt P40763: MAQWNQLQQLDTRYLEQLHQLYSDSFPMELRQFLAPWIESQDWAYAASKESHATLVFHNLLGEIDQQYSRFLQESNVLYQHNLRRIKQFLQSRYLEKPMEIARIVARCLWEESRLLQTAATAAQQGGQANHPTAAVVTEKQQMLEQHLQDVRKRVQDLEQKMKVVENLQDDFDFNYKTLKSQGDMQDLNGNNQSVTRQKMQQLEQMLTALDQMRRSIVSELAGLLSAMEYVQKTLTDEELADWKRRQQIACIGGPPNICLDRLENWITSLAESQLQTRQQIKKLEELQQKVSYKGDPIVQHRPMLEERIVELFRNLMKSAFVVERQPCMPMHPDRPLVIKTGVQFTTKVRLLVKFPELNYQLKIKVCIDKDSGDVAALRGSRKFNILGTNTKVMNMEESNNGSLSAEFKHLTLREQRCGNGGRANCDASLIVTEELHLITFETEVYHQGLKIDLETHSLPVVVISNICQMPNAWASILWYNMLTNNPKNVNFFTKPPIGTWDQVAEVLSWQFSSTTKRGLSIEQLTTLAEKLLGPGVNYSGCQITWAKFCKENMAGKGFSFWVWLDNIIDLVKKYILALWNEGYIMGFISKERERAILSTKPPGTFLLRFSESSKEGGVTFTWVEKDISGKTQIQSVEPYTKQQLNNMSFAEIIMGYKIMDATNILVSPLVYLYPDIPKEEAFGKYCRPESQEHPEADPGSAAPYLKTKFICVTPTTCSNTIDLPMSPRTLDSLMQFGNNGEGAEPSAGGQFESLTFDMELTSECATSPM
# UniProt O15371: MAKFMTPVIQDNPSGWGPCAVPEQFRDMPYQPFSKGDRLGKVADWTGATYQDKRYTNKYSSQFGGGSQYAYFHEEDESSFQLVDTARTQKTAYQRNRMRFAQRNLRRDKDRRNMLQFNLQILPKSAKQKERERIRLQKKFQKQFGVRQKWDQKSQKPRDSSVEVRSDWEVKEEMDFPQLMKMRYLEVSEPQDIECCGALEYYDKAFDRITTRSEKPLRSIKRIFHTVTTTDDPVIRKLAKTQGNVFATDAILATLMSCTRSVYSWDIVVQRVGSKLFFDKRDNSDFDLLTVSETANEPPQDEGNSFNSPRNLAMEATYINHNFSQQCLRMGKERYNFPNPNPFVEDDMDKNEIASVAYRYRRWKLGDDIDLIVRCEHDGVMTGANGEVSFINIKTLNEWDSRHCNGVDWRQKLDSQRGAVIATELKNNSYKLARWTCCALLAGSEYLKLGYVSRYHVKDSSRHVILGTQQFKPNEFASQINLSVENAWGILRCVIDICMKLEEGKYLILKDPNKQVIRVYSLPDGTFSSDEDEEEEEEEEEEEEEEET
# UniProt P78347: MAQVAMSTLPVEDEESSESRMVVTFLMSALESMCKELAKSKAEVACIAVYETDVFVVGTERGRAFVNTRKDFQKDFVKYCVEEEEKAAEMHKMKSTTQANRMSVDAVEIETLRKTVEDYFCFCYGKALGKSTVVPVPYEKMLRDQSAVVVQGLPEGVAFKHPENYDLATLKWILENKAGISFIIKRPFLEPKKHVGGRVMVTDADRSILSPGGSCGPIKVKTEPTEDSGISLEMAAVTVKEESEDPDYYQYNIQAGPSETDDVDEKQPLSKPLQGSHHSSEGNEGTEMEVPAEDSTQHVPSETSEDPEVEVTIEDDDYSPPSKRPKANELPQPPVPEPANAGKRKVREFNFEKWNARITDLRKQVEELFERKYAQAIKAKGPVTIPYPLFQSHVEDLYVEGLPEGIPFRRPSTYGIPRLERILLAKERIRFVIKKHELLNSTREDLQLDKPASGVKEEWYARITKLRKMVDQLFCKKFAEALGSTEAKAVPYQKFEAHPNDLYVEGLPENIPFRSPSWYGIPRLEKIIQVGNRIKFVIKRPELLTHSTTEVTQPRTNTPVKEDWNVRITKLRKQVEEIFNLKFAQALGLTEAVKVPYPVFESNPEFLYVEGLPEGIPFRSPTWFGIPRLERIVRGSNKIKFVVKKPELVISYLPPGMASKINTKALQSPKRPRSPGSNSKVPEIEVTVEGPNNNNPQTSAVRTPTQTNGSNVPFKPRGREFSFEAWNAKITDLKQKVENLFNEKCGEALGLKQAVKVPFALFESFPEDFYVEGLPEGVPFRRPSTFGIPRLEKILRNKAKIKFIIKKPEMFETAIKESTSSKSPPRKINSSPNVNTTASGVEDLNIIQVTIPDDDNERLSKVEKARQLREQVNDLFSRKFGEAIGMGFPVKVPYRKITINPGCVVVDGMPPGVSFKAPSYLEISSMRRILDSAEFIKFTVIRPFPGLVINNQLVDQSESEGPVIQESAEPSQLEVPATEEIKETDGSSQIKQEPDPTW
# These are yes or no findings as the source states them, for the method shown. In cells and extracts the contact can be indirect. Here binding means that the protein was enriched with, or labelled near, the bait; the list need not be complete.
# Molecular target: Flag-M2-tagged EIF3F (eukaryotic translation initiation factor 3F) (human) (UniProt O00303)
# Test: affinity purification with mass spectrometry; FLAG-EIF3F from EIF3F-A549 lysate held on Anti-Flag M2 magnetic beads; 50 mM Tris HCl pH 7.4, 150 mM NaCl, 1 mM EDTA, 1% Triton X-100; overnight at 4 °C; eluted with sample buffer; partners identified by proteomic analysis
row,binding,Molecule
1,binds,Bcl-2-associated transcription factor 1 (from UniProt Q9NYF8 1-920)
2,binds,EIF3C (from UniProt Q99613 1-913)
3,binds,Transcription intermediary factor 1-beta (from UniProt Q13263 1-835)
4,binds,EIF3CL (from UniProt B5ME19 1-914)
5,binds,Signal transducer and activator of transcription 3 (from UniProt P40763 1-770)
6,binds,EIF3D (from UniProt O15371 1-548)
7,binds,General transcription factor II-I (from UniProt P78347 1-998)
8,binds,"Transcription initiation factor IIE subunit beta (protein, UniProt P29084 1-291) MDPSLLRERELFKKRALSTPVVEKRSASSESSSSSSKKKKTKVEHGGSSGSKQNSDHSNGSFNLKALSGSSGYKFGVLAKIVNYMKTRHQRGDTHPLTLDEILDETQHLDIGLKQKQWLMTEALVNNPKIEVIDGKYAFKPKYNVRDKKALLRLLDQHDQRGLGGILLEDIEEALPNSQKAVKALGDQILFVNRPDKKKILFFNDKSCQFSVDEEFQKLWRSVTVDSMDEEKIEEYLKRQGISSMQESGPKKVAPIQRRKKPASQKKRRFKTHNEHLAGVLKDYSDITSSK"
9,binds,"Transcription factor A, mitochondrial (protein, UniProt Q00059 43-246) SSVLASCPKKPVSSYLRFSKEQLPIFKAQNPDAKTTELIRRIAQRWRELPDSKKKIYQDAYRAEWQVYKEEISRFKEQLTPSQIMSLEKEIMDKHLKRKAMTKKKELTLLGKPKRPRSAYNVYVAERFQEAKGDSPQEKLKTVKENWKNLSDSEKELYIQHAKEDETRYHNEMKSWEEQMIEVGRKDLLRRTIKKQRKYGAEEC"
10,binds,"RNA transcription, translation and transport factor (protein, UniProt Q9Y224 1-244) MFRRKLTALDYHNPAGFNCKDETEFRNFIVWLEDQKIRHYKIEDRGNLRNIHSSDWPKFFEKYLRDVNCPFKIQDRQEAIDWLLGLAVRLEYGDNAEKYKDLVPDNSKTADNATKNAEPLINLDVNNPDFKAGVMALANLLQIQRHDDYLVMLKAIRILVQERLTQDAVAKANQTKEGLPVALDKHILGFDTGDAVLNEAAQILRLLHIEELRELQTKINEAIVAVQAIIADPKTDHRLGKVGR"
